What is called AC50 is the midpoint of the concentration-response curve, whichever way the signal moves. A lower AC50 goes with greater potency.

Some of the results follow. Shown are side measurements of this screen, not its main read-out; they come without a call. The list favours compounds with an active or inconclusive main result. Potencies come from curve fits of mixed quality, noted in brackets.

The nature of the assay: qHTS Assay for Lipid Storage Modulators in Drosophila S3 Cells.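 As to cell number change: cells counted by Cell Tracker Red CMTPX staining in the red channel.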 The settings on record: BODIPY lipid droplet fluorescence, 18-24 h; for cell number change: measured here: cell count max response, cells fed with added oleic acid. In a few lines:
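Drosophila S3 cells got compounds at several concentrations plus oleic acid (400 uM solution). Laser-scanning cytometry with 488 nm excitation read lipid droplets at 500-530 nm and cells at 575-640 nm. Percent activity was relative to 20 uM Triacsin C.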

[1] abbreviates: measured here: lipid fluorescence (Fed channel) AC50, cells fed with added oleic acid.
The mark [2] stands for this setting: measured here: cell number channel AC50, cells fed with added oleic acid.

Consider `CC1(C)CC2CC(C)(CN2C(=O)COC(=O)c2ccccc2C(F)(F)F)C1` (stereo not drawn), for which the cell number change was -14%. The AC50 under setting [1] is 4.11 µM [rising, single point]. In the case of `COc1ccc(C2NCCc3sccc32)cc1` (stereo not drawn), the AC50 under setting [1] is 32.6 µM [rising, single point]. For `COc1ccc(NC2=CC(=O)CC(C)(C)C2)cc1OC`, the cell number change is 10.6%. On to `CC(C)NCCOc1cccc(Br)c1`, for which the cell number change is -91.8%. For the same compound, the AC50 under setting [2] is 32.6 µM [falling, partial curve]. Moreover, the AC50 under setting [1] was 6.51 µM [falling, single point]. Consider `CCOc1ccc(Cl)cc1CNc1nnnn1CC`, for which the cell number change amounted to 14.1%. Consider `C=CCC(NCCCO)c1cccc(OC)c1OC` (stereo not drawn), for which the cell number change is -30%. Under setting [1], the AC50 was 29.1 µM [falling, single point]. Consider `CCN(CC)CCNC(=O)CCCCn1c(=S)[nH]c2c([nH]c3ccc(OC)cc32)c1=O`, for which the cell number change is -24.2%. In addition, the half-maximal activity concentration (AC50) under setting [1] was 0.231 µM [falling, full curve]. With `Cc1ccc2cc(CN(C(=O)C3CCCO3)C3CCCCC3)c(=O)[nH]c2c1` (stereo not drawn), the cell number change was -7.9%. In addition, the half-maximal activity concentration (AC50) under setting [1] is 20.6 µM [rising, single point]. With `CCOc1ccc(C(=O)Nc2cccc(-c3cc4ccccc4oc3=O)c2)cc1[N+](=O)[O-]`, the cell number change was determined as 4.52%. Under setting [1], the half-maximal activity concentration (AC50) was 8.2 µM [falling, partial curve]. On to `CC(C)OC(=O)C1C(=O)CC(C)(O)C(C(=O)OC(C)C)C1c1ccc(F)cc1` (stereo not drawn), for which the cell number change is -36.2%. Further, under setting [2], the AC50 is 18.4 µM [falling, partial curve]. In addition, the AC50 under setting [1] is 23.1 µM [falling, partial curve].

For the compound `CCOP(=O)(c1ccc(N(C)C)cc1)C(O)c1c(Cl)cccc1Cl` (stereo not drawn), the cell number change was -79.9%. Besides, the AC50 under setting [1] was 20.6 µM [falling, single point]. In the case of `CCn1c2ccccc2c2nc3cc(S(=O)(=O)N4CCOCC4)ccc3nc21`, the cell number change is -10.2%. Besides, the AC50 under setting [1] was 16.4 µM [falling, partial curve, poor fit]. As to `COc1cc2c(cc1OC)[C@@H](Cc1ccc(OCCC#N)cc1)N(C)CC2`, the cell number change worked out at 19.1%. Consider `CCc1cccc2c(C(=S)N3CCCC3)c[nH]c12`, for which the cell number change is -26.2%. Also, the AC50 under setting [1] is 29.1 µM [falling, single point]. In the case of `COc1ccc(NC(=O)CN2CCN(CC(=O)Nc3ccccc3OC)CC2)c(OC)c1`, the cell number change worked out at 8.33%.

On to `COCCn1c(N)c(C(=O)Nc2sc3c(c2C(=O)OC)CCCC3)c2nc3ccccc3nc21`, for which the cell number change stood at 145%. The concentration at half-maximal activity (AC50) under setting [2] is 0.291 µM [rising, partial curve, poor fit]. Moreover, under setting [1], the AC50 was 0.58 µM [rising, single point]. Consider `O=C(COc1ccc(Cl)cc1)N/N=C/CCc1ccccc1`, for which the cell number change is -29.3%. Under setting [1], the AC50 was 1.84 µM [falling, single point]. With `O=C(Nc1ncccc1O)c1cccc(S(=O)(=O)N2CCc3ccccc32)c1`, the cell number change was 30.5%. Besides, the AC50 under setting [2] was 29.1 µM [rising, single point]. For the compound `Cc1cc2c(C)ccc(C)c2nc1SCC(=O)c1cccs1`, the cell number change turned out to be 28.6%. Further, under setting [2], the half-maximal activity concentration (AC50) is 0.164 µM [rising, full curve, poor fit]. Under setting [1], the AC50 is 0.146 µM [rising, full curve, poor fit]. With `CCN(Cc1ccccc1)C(=O)COC(=O)Cc1c[nH]c2ccccc12`, the concentration at half-maximal activity (AC50) was 2.06 µM [falling, partial curve] under setting [2] and 1.64 µM [falling, full curve] under setting [1]. Regarding `C/C(=N\NC(=O)C12CCC(C)(C(=O)O1)C2(C)C)c1ccccc1O` (stereo not drawn), the cell number change was -13.6%. Moreover, under setting [2], the AC50 was 0.116 µM [falling, full curve, poor fit].

As for `COc1ccc2oc(C(=O)OCC(=O)NC(=O)c3ccccc3)c(C)c2c1`, the cell number change worked out at 32.8%. For the same compound, the AC50 under setting [2] was 0.00517 µM [rising, full curve, poor fit]. The AC50 under setting [1] is 11.6 µM [rising, partial curve, poor fit]. Take `O=C(N/N=C/c1cccs1)c1cncc(Br)c1`: the cell number change turned out to be 23.4%. Besides, under setting [1], the AC50 was 9.2 µM [rising, partial curve]. Take `N#Cc1ccsc1NC(=O)COC(=O)c1ccc2ccccc2c1`: the cell number change was determined as 15.5%. For the same compound, under setting [1], the concentration at half-maximal activity (AC50) is 2.31 µM [rising, partial curve].

`O=c1ccc(-c2ccc(S(=O)(=O)N3CCCCC3)o2)n[nH]1`: the cell number change is -33.4%. Moreover, the AC50 under setting [2] is 10.3 µM [falling, partial curve]. Moreover, under setting [1], the AC50 was 13 µM [falling, partial curve, poor fit]. On to `c1ccc(-n2ncc3c2ncn2c(C4CCCCC4)nnc32)cc1`, for which the cell number change is -30.4%. Further, the AC50 under setting [2] was 6.51 µM [falling, full curve, poor fit]. Also, under setting [1], the AC50 is 29.1 µM [falling, single point]. For the compound `COc1ccc(S(=O)(=O)N2CCCC(C(=O)NCCc3ccccc3)C2)cc1` (stereo not drawn), the cell number change came out at 2.99%. On to `Cc1ccc2nc(-c3ccc(NC(=O)Cc4cccs4)cc3)[nH]c2c1`, for which the cell number change was -50.3%. In addition, the AC50 under setting [2] was 18.4 µM [falling, partial curve, poor fit]. The AC50 under setting [1] is 16.4 µM [falling, partial curve]. With `CC(C)N1CC(C(=O)Nc2ccc(Br)c(Cl)c2)CC1=O` (stereo not drawn), the cell number change was determined as 1.35%. For the same compound, the AC50 under setting [1] was 6.51 µM [rising, single point]. On to `CC(C)(C)C(=O)Nc1c2c(nn1-c1ccc(F)cc1)CSC2`, for which the cell number change was -1.98%. Also, the AC50 under setting [1] was 29.1 µM [rising, single point]. For the compound `O=C(Cc1ccccc1[N+](=O)[O-])N1CCOCC1`, the cell number change was found to be 23.5%. Also, the AC50 under setting [2] was 0.651 µM [rising, full curve, poor fit]. With `CC1(C)CC(=O)C(C(c2ccc(Br)cc2)C2C(=O)CC(C)(C)CC2=O)C(=O)C1`, the cell number change amounted to 3.04%. On to `S=c1[nH]nc(-c2cccs2)n1/N=C/c1cccs1`, for which the cell number change is -4.9%. For the same compound, the AC50 under setting [2] was 0.00517 µM [falling, full curve, poor fit]. Regarding `Cn1c(=O)[nH]c(=O)c2c1nc(N/N=C/C(Br)=C/c1ccccc1)n2CCO`, the cell number change came out at 18.6%. For `CCOc1ccccc1C1C(C#N)=C(N)Nc2onc(-c3ccccc3)c21` (stereo not drawn), the cell number change was -23.3%. The AC50 under setting [2] was 0.731 µM [falling, full curve, poor fit]. Moreover, the AC50 under setting [1] is 0.231 µM [falling, full curve]. As to `O=C(OCC(=O)N1CCc2ccccc2C1)c1cccs1`, the AC50 under setting [2] is 2.06 µM [falling, single point]. Turning to `Cc1ccc(NC(=O)COc2ccccc2C(=O)Nc2ccccc2)cc1Cl`, the cell number change was -10.4%. In addition, the AC50 under setting [1] is 1.16 µM [rising, full curve, poor fit]. Turning to `CC(=O)N1CCc2cc(Br)cc(S(=O)(=O)N3CCC(C(=O)O)CC3)c21`, the cell number change was -5.65%. The AC50 under setting [1] is 0.13 µM [falling, full curve].

For `O=C(Nc1cc(Cl)cc(Cl)c1)C1C2C=CC3(O2)C1C(=O)N(CCCN1CCOCC1)C3C(=O)NC1CCCCC1` (stereo not drawn), the cell number change was found to be 22.2%. The AC50 under setting [2] is 2.59 µM [rising, partial curve, poor fit]. In addition, under setting [1], the AC50 was 6.51 µM [rising, partial curve].

For `Cc1ccnc(SCCn2c(Br)nc3c2c(=O)[nH]c(=O)n3C)n1`, the cell number change amounted to 2.56%. For the same compound, the AC50 under setting [1] is 3.26 µM [rising, partial curve]. For `COc1cccc(NC(=O)CSc2nc(C)cs2)c1`, the cell number change is 20.5%. Moreover, the AC50 under setting [1] is 6.51 µM [falling, single point]. On to `Cc1cc(C)nc(Nc2nc3ccccc3s2)n1`, for which the AC50 is 2.91 µM [rising, single point] under setting [2] and 6.51 µM [rising, partial curve, poor fit] under setting [1]. On to `CCOc1ccccc1NS(=O)(=O)c1cn(C)nc1C`, for which the cell number change is -38%. Also, the half-maximal activity concentration (AC50) under setting [1] is 3.16 µM [rising, single point].

`O=C(O)c1ccc(CS(=O)(=O)c2cccc(C(F)(F)F)c2)o1`: the cell number change was -40.8%. Moreover, the AC50 under setting [2] is 0.58 µM [falling, full curve]. Further, under setting [1], the half-maximal activity concentration (AC50) was 0.146 µM [falling, full curve]. As to `COc1ccc(OCCOC(=O)C(C)NS(=O)(=O)c2ccc(NC(C)=O)cc2)cc1` (stereo not drawn), the cell number change was -8.43%. On to `Cc1cc(C(=O)NC2CCCc3c2cnn3-c2cc(F)cc(F)c2)nn1C` (stereo not drawn), for which the cell number change was 12.2%. The AC50 under setting [2] is 0.731 µM [falling, full curve]. The AC50 under setting [1] is 0.58 µM [falling, full curve]. As to `Cc1ccc(-c2c(C)sc3nc(CN4CCN(CC(=O)NC5CC5)CC4)[nH]c(=O)c23)cc1`, the cell number change is -14.7%. In addition, the AC50 under setting [1] is 0.0231 µM [falling, full curve, poor fit]. Take `CCC(C)N(CC(=O)Nc1cccc(C)c1C)C(=O)CCl` (stereo not drawn): the cell number change stood at 86.7%. The same measure, in the same setting: as for `COc1ccc(CCNC(=O)C(=O)NCC2OCCCN2S(=O)(=O)c2cc(C)ccc2C)cc1` (stereo not drawn), the figure is -6.94%; as for `Cc1oc(C(=O)Nc2ccc(C(=O)O)cc2)cc1COc1ccccc1`, 19.2%. For `O=C(Cc1ccccc1)NN1C(=O)C2C3C=CC(C3)[C@@H]2C1=O` (stereo partly drawn), the AC50 under setting [2] was 0.92 µM [rising, partial curve]. Take `CC(C)N1C(=O)CC(Nc2cccc3cccc(N)c23)C1=O` (stereo not drawn): the cell number change was found to be 37.8%.

With `Cc1nn(C)c(Cl)c1/C=N/OC(=O)c1ccccc1`, the cell number change was -40.7%. As for `COc1ccc(NC(=O)CS(=O)CC(=O)Nc2cccc3cccnc23)cc1` (stereo not drawn), the cell number change stood at 23.1%. The concentration at half-maximal activity (AC50) under setting [1] is 2.59 µM [rising, full curve].

Take `CS(=O)(=O)NCCNc1ncc(C(F)(F)F)cc1Cl`: the cell number change was found to be 38.4%. For the same compound, the AC50 under setting [2] was 3.26 µM [rising, full curve].

On to `O=C(NCc1cccs1)c1cccnc1C(=O)O`, for which the cell number change was -36.1%. Moreover, under setting [2], the AC50 was 0.058 µM [falling, full curve, poor fit]. In addition, under setting [1], the AC50 is 29.1 µM [falling, single point]. Consider `Cc1ccc(Cn2ccc(-c3cnc(-c4ccccc4)s3)n2)cc1`, for which the cell number change was -68.4%. For the same compound, under setting [2], the AC50 was 1.84 µM [rising, partial curve]. Also, the AC50 under setting [1] is 2.31 µM [rising, partial curve]. Regarding `COc1ccc(Cl)cc1NC(=O)C/C(C)=N/NC(=O)C(=O)NCc1ccccc1`, the cell number change was -26.3%. With `CC(C)OC(=O)C1=C2SCC(=O)N2C(N)=C(C#N)C1`, the cell number change is -50.7%. For the same compound, under setting [2], the AC50 was 23.1 µM [falling, single point]. On to `COC(=O)c1sc(NC(=O)COc2cccc3ccccc23)nc1C`, for which the cell number change is -28.8%. Under setting [1], the half-maximal activity concentration (AC50) is 5.8 µM [falling, full curve, poor fit].

As to `Cc1ccc(NC(=O)CCN2CCC(Cc3ccccc3)CC2)cc1`, the cell number change was -3.65%.

(Values after PubChem BioAssay AID2685 (National Center for Advancing Translational Sciences (NCATS), 2010).)
